Paper PMC12421377, “Molecular basis for the recognition of low-frequency polyadenylation signals by mPSF”
Results are given in words; binding and its absence hold for the method and conditions named. Some results given as binding are weak or reduced against the parent protein; the word gives no strength.

Amino acid sequences for entries named in this document (tags omitted).
UniProt O95639: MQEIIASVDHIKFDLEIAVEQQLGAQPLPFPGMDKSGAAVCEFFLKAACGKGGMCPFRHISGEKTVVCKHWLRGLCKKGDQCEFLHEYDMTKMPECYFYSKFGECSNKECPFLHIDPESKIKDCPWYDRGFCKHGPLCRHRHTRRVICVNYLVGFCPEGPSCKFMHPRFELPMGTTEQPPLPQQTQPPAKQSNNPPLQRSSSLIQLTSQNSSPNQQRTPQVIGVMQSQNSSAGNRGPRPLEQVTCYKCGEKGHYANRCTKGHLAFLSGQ

Biological target: T1, WDR33 (residues 1-572) (human) (UniProt Q9C0J8)
T1 sequence: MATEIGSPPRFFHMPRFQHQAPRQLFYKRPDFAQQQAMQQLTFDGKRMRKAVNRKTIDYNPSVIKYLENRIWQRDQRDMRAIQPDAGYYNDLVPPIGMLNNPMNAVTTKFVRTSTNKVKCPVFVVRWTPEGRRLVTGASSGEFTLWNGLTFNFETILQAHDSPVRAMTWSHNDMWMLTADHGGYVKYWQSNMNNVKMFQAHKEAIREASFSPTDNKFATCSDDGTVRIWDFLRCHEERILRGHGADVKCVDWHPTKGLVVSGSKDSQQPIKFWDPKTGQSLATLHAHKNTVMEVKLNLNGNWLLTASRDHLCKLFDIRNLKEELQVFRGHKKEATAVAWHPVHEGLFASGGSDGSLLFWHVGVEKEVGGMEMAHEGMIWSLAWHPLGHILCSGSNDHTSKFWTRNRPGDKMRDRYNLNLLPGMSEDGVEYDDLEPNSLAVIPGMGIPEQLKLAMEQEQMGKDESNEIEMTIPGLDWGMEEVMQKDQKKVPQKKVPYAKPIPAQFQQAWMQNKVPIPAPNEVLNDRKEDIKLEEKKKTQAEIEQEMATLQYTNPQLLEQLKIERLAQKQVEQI
Experiment: cryo-EM structure; 1.4 uM mPSF mixed with 25 uM 12-mer RNA oligo (AAUAAU or AGUAAA); 20 mM Tris pH 8.0, 150 mM NaCl, 2 mM DTT; on ice 1 h; both purified

Substance: CPSF30 (from UniProt O95639 1-269)
- binding: binds
